Like-named read-outs stand apart in the source and are kept apart here. These are yes or no findings as the source states them, for the method shown. For some of these results: In cells and extracts the contact can be indirect. Some entries that bind do so weakly or less than the wild type. For some of these results: Where a sequence is shown, tags or fusion partners need not be part of it.
How the values were obtained:
[1] = biological target: F-box protein At1g08710 (GAL4 DNA-binding domain fusion, pDEST-GBKT7) (Arabidopsis thaliana) (UniProt Q9CAZ0); test: two-hybrid
[2] = biological target: Cullin 1, GAL4 DNA-binding domain fusion (pDEST-GBKT7) (Arabidopsis thaliana) (UniProt Q94AH6); test: two-hybrid
[3] = biological target: F-box protein At1g08710 (GAL4 DNA-binding domain fusion, pDEST-GBKT7) (Arabidopsis thaliana) (UniProt Q9CAZ0); test: two-hybrid; remark: listed apart in the source
[4] = biological target: F-box protein At1g08710, N-YFP fusion (pSAT4-DEST-N, 1-174 N-YFP) (Arabidopsis thaliana) (UniProt Q9CAZ0); test: split reporter

Protein sequences, listed by entry. Tags and fused reporters are not part of them.
UniProt Q9CAZ0: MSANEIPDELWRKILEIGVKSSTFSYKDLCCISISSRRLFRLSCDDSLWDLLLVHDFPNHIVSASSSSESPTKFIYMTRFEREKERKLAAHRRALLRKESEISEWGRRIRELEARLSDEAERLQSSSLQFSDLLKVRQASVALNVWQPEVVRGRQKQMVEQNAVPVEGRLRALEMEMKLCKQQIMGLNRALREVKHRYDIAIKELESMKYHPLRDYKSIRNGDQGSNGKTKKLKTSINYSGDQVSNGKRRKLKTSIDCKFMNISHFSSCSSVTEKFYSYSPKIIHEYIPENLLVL
UniProt Q94AH6: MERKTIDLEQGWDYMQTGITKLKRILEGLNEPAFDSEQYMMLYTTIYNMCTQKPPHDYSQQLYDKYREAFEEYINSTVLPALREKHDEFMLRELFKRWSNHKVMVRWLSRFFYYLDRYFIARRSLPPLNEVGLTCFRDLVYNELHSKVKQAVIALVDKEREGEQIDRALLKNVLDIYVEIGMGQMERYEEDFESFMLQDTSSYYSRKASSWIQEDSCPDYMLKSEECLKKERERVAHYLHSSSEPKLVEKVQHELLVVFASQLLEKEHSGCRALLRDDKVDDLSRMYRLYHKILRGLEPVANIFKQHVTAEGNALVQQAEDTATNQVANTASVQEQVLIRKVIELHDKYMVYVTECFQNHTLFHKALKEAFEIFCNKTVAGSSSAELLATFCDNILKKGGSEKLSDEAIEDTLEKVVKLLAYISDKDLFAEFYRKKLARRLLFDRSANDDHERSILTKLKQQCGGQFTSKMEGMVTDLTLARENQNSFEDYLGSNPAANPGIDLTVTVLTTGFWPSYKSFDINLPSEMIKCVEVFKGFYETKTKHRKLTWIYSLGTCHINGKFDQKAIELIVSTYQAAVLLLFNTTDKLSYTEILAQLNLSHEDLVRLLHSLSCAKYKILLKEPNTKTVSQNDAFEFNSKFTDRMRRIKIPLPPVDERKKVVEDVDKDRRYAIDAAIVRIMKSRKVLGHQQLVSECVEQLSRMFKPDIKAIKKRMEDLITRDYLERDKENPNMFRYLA
UniProt Q39255: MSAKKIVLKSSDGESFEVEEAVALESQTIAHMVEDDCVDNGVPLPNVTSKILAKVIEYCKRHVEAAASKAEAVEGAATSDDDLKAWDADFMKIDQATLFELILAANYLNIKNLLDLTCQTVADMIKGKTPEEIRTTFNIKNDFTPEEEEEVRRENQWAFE

Question: With “ASK1 (Arabidopsis SKP1 like protein 1), GAL4 activation domain fusion (pDEST-GADT7) (from UniProt Q39255 1-160)” as the molecule, how does the binding [1] read?
Answer: binds

Question: What about the binding [2] of the same molecule?
Answer: binds

B1: ALTERATION/… IN ACTIVATION 2B (ADA2b), GAL4 activation domain fusion (pDEST-GADT7) (protein, UniProt Q9ATB4 1-487)
chain: MGRSRGNFQNFEDPTQRTRKKKNAANVENFESTSLVPGAEGGGKYNCDYCQKDITGKIRIKCAVCPDFDLCIECMSVGAEITPHKCDHPYRVMGNLTFPLICPDWSADDEMLLLEGLEIYGLGNWAEVAEHVGTKSKEQCLEHYRNIYLNSPFFPLPDMSHVAGKNRKELQAMAKGRIDDKKAEQNMKEEYPFSPPKVKVEDTQKESFVDRSFGGKKPVSTSVNNSLVELSNYNQKREEFDPEYDNDAEQLLAEMEFKENDTPEEHELKLRVLRIYSKRLDERKRRKEFIIERNLLYPNPFEKDLSQEEKVQCRRLDVFMRFHSKEEHDELLRNVVSEYRMVKRLKDLKEAQVAGCRSTAEAERYLGRKRKRENEEGMNRGKESGQFGQIAGEMGSRPPVQASSSYVNDLDLIGFTESQLLSESEKRLCSEVKLVPPVYLQMQQVMSHEIFKGNVTKKSDAYSLFKIDPTKVDRVYDMLVKKGIAQL
Question: B1 was tested. Which binding [3] did it give?
Answer: binds

B2: ADA2b, C-YFP fusion (pSAT5-DEST-C, 175-END C-YFP) (protein, UniProt Q9ATB4 1-487)
chain: B1 chain
Question: Which binding [4] does the source give for B2 here?
Answer: binds

Reference: publication doi:10.1101/2020.08.31.275271
